Drawing on publication PMC5063997, “Engineered Tissue Inhibitor of Metalloproteinases-3 Variants Resistant to Endocytosis Have Prolonged Chondroprotective Activity*” (The Journal of Biological Chemistry, 2016), this text covers binding for three molecules.

Sequences of proteins named here, by UniProt entry; tags and fusion partners are left off. Residues count along the entry.
UniProt Q07954, residues 20-4544: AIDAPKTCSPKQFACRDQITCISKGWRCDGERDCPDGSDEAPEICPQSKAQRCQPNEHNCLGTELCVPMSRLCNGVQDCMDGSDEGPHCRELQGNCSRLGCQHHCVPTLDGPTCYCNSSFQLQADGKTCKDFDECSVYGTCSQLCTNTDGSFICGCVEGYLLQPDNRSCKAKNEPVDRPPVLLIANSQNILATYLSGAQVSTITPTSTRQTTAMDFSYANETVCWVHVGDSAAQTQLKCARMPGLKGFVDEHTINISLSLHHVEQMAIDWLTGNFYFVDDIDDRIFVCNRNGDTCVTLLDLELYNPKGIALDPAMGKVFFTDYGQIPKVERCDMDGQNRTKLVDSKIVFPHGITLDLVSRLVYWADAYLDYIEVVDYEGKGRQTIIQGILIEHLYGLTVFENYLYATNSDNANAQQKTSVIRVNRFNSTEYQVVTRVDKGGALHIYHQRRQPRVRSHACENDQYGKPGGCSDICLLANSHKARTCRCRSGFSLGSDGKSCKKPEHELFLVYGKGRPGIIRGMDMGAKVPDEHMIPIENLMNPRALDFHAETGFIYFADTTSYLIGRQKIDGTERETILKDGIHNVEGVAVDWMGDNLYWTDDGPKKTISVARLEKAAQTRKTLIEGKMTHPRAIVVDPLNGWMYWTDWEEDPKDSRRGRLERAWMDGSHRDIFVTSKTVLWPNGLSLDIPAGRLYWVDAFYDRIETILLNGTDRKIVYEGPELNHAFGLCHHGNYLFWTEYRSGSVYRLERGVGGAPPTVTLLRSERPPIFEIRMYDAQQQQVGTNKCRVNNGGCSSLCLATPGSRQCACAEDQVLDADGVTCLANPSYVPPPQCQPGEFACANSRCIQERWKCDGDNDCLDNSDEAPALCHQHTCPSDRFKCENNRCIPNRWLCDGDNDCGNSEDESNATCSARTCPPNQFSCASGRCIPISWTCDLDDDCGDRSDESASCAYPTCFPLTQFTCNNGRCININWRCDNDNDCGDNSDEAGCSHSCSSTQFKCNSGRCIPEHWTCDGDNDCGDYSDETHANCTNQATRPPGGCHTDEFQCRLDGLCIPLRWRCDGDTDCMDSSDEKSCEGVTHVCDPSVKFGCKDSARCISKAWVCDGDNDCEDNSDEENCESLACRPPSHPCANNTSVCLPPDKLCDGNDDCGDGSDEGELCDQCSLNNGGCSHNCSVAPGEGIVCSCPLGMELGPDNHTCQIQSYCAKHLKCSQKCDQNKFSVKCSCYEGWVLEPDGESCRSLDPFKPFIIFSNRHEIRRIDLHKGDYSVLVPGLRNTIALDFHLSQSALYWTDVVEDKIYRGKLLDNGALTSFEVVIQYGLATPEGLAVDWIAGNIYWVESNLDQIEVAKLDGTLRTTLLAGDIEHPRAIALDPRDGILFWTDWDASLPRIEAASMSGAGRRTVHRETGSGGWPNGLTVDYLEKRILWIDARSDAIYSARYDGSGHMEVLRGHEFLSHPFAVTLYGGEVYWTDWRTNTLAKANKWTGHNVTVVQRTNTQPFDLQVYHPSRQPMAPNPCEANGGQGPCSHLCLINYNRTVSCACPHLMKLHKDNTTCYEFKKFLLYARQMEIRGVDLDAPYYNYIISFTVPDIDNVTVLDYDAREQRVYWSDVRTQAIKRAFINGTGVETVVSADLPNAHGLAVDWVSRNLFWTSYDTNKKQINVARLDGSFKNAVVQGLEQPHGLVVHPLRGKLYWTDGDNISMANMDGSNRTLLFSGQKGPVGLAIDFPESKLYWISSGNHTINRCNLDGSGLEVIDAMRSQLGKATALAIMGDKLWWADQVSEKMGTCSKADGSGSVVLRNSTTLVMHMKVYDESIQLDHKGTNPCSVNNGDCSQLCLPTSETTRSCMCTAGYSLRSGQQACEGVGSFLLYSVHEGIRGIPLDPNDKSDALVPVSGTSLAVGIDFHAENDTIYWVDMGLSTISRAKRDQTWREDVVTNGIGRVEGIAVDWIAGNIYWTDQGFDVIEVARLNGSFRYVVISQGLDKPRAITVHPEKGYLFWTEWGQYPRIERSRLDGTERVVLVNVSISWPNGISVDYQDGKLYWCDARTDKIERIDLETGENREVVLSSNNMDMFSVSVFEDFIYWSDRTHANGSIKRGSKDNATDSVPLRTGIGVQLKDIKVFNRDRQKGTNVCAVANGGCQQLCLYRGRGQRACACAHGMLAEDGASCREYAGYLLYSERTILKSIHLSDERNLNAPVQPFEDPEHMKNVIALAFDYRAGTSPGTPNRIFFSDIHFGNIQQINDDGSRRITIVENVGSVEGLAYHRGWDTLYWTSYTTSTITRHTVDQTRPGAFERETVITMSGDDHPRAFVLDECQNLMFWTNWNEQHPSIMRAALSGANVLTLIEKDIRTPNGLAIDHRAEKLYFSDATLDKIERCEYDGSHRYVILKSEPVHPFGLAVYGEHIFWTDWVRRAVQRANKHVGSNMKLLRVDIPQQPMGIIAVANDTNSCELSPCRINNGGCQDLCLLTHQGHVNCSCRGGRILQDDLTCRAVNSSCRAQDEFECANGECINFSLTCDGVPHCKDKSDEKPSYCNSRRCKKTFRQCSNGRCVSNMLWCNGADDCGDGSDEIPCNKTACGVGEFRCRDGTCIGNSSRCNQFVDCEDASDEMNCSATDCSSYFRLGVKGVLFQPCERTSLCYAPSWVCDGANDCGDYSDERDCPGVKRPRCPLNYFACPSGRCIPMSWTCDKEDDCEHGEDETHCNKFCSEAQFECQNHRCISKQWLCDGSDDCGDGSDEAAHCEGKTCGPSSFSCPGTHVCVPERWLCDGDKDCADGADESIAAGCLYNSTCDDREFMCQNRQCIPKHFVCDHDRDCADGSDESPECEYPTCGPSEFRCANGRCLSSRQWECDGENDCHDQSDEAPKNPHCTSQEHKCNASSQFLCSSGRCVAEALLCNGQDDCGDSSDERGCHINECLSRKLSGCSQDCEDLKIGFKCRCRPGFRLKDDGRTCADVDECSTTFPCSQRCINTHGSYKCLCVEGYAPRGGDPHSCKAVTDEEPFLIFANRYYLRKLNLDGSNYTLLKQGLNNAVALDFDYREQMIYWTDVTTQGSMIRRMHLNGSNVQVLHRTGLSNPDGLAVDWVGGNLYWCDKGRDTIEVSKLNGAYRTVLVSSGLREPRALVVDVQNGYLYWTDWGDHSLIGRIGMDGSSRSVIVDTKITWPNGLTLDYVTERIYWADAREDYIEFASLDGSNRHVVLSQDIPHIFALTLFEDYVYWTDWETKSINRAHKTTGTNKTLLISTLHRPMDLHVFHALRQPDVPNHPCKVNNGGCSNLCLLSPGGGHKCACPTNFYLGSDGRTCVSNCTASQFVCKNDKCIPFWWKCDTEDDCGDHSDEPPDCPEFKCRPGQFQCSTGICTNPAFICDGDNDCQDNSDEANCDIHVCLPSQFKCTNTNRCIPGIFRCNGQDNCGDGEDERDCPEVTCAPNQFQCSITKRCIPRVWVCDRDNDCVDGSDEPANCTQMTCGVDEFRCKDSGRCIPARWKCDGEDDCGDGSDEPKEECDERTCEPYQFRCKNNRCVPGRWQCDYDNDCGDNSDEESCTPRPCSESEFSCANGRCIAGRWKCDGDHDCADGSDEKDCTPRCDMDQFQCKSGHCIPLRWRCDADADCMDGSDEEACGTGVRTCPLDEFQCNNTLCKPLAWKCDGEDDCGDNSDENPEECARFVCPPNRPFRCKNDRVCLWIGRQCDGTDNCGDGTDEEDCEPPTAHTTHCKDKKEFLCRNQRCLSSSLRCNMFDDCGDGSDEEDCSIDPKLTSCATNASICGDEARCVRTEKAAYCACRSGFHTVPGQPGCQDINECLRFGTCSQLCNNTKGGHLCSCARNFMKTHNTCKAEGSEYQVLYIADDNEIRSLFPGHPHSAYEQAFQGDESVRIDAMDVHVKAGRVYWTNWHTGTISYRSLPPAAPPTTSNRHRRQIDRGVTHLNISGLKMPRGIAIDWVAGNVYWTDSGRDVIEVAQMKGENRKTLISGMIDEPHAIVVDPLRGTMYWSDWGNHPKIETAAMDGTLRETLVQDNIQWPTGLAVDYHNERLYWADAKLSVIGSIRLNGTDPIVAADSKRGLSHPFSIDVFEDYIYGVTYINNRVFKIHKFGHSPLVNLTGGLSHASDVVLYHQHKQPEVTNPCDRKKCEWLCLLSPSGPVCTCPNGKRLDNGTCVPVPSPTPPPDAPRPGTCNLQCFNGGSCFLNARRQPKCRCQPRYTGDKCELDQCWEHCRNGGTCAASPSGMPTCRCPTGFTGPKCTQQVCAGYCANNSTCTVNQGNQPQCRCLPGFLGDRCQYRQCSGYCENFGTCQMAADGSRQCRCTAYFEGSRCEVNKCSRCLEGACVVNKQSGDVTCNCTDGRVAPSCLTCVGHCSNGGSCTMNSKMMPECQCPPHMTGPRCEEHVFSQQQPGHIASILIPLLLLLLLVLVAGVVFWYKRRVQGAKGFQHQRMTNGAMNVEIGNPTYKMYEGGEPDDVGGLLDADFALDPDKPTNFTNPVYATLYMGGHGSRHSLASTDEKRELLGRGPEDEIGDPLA

Positions count from the first letter of the chain named. Names may count otherwise. These are yes or no findings as the source states them, for the method shown. Some binding calls cover weakened binding; strength is not graded here. Where a sequence is shown, tags or fusion partners need not be part of it.

The chains are these.
B1: wild-type TIMP-3 (tissue inhibitor of metalloproteinases-3), C-terminally FLAG-tagged (natural protein, UniProt P35625 24-211, looked up)
chain: CTCSPSHPQDAFCNSDIVIRAKVVGKKLVKEGPFGTLVYTIKQMKMYRGFTKMPHVQYIHTEASESLCGLKLEVNKYQYLLTGRVYDGKMYTGLCNFVERWDQLTLSQRKGLNYRYHLGCNCKIKSCYYLPCFVTSKNECLWTDMLSNFGYPGYQSKHYACIRQKGGYCSWYRGWAPPDKSIINATDP
notes: TIMP-3, secreted into the conditioned medium; source: for the screen also transiently transfected, conditioned medium dialyzed against TBS; not shown: FLAG, C-terminal, kept
B2: TIMP-3 K42A/K110A, C-terminally FLAG-tagged (natural protein, UniProt P35625 24-211, looked up)
chain: B1 chain with K42A, K110A
notes: TIMP-3, secreted into the conditioned medium; The discussion once calls this mutant K45A/K110A; source: for the screen also transiently transfected, conditioned medium dialyzed against TBS; not shown: FLAG, C-terminal, kept
B3: TIMP-3 K26A/K45A, C-terminally FLAG-tagged (natural protein, UniProt P35625 24-211, looked up)
chain: B1 chain with K26A, K45A
notes: as for B1

For the assay, the target named is low density lipoprotein receptor-related protein 1 (LRP1), full-length (UniProt Q07954). Briefly: ELISA; LRP1 (5 nM) coated overnight at 4 °C on medium-binding plates; purified TIMP-3 0.4-50 nM in TNC buffer (50 mM Tris-HCl pH 7.5, 150 mM NaCl, 10 mM CaCl2, 0.05% Brij 35) with 5% BSA, 3 h, 25 °C; detected with anti-FLAG M2 and anti-mouse-HRP; both purified.
In the case of B1, the binding result is recorded as “binds”.

For B2, the binding entry is given as “binds weakly”.

B3: the binding entry was “binds”.
